Like-named read-outs stand apart in the source and are kept apart here. No constants are given. Whether binding was seen depends on the method and setting. In cells and extracts the contact can be indirect. These calls come from enrichment with a bait or labelling near it, and not all partners need be listed. Sequences can lack the tags named with a protein.

Sequences of proteins named here, by UniProt entry; tags and fusion partners are left off. Residues count along the entry.
UniProt Q9HCU4, residues 32-2923: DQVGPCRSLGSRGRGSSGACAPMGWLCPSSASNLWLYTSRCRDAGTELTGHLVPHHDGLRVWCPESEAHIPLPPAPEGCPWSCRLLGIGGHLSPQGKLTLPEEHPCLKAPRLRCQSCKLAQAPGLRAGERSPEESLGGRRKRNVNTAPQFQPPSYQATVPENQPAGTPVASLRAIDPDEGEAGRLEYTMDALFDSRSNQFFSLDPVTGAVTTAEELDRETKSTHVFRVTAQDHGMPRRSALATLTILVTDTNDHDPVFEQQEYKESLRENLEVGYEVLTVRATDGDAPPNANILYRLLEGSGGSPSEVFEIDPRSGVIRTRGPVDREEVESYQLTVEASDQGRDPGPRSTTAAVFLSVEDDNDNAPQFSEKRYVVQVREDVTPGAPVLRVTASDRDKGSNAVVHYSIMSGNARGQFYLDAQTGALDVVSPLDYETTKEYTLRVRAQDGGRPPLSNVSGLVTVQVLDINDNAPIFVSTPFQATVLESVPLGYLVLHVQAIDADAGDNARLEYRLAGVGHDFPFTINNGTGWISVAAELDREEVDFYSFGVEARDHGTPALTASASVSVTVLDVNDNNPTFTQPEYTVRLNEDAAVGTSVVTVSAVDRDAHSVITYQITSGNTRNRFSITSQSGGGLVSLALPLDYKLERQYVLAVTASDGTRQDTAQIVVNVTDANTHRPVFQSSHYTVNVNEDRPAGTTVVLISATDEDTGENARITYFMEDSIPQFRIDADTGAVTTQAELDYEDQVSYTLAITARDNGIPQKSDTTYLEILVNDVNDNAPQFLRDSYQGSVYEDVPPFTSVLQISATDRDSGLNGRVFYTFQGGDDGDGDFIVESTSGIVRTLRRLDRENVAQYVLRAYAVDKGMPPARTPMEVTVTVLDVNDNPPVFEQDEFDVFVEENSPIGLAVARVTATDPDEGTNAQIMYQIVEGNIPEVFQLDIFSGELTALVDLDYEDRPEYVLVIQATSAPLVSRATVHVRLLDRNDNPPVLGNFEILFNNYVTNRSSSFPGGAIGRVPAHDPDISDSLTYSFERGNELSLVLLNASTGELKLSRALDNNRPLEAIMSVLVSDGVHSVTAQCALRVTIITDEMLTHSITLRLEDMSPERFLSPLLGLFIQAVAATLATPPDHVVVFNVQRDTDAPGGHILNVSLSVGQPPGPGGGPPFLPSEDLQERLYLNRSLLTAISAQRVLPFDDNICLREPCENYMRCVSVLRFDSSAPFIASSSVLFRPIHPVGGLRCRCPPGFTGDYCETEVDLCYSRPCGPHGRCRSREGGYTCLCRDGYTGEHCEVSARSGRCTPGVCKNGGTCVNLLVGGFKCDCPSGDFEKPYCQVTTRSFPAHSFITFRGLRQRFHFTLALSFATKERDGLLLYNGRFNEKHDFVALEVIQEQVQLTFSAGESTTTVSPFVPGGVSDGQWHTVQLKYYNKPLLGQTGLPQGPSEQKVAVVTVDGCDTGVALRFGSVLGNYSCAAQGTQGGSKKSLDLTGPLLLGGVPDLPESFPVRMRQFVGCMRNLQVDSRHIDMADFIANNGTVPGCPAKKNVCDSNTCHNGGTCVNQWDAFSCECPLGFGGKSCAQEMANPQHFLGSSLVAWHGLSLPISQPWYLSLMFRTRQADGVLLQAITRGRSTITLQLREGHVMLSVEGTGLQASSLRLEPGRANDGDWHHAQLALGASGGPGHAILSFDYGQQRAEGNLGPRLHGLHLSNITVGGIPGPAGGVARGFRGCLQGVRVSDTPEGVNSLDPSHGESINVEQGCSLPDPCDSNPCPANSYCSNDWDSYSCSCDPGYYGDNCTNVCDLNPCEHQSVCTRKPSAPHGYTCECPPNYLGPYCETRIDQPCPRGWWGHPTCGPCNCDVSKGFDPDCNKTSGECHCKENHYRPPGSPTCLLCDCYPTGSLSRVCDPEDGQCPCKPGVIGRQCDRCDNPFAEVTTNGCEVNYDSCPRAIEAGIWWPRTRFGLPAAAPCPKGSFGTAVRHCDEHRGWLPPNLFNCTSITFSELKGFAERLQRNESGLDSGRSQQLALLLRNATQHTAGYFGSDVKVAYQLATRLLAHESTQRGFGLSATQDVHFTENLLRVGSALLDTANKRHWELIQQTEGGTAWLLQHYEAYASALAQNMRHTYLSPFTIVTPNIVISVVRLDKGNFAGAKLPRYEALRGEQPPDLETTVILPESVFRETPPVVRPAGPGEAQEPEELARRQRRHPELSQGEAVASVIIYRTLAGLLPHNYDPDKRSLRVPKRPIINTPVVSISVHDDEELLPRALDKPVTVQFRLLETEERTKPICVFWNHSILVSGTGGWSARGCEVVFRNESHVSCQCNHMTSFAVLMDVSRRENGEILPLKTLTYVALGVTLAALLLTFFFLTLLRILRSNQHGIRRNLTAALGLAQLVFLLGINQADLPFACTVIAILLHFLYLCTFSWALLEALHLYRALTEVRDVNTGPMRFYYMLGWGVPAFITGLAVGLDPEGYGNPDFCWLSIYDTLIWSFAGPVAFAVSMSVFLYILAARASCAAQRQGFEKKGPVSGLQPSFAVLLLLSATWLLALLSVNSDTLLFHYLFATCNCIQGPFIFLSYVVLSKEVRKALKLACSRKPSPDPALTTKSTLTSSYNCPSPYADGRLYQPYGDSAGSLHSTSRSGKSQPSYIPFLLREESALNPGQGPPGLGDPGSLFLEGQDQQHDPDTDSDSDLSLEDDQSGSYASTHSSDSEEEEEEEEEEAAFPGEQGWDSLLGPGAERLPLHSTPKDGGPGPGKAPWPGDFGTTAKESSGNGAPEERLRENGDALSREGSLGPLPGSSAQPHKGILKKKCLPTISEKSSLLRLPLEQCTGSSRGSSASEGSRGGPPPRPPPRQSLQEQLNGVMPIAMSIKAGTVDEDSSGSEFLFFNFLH
UniProt P49674: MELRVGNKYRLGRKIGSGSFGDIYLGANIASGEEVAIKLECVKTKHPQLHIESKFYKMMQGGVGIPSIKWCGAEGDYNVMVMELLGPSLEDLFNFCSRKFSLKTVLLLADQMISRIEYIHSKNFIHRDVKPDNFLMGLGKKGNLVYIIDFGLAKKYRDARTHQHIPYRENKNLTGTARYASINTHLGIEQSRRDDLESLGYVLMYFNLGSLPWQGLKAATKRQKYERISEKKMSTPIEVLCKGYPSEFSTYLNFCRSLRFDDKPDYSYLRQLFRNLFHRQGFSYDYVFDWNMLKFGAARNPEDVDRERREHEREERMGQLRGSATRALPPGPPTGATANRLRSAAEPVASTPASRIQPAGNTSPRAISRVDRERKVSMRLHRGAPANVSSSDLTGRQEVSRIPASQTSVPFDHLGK
UniProt Q8N4C8: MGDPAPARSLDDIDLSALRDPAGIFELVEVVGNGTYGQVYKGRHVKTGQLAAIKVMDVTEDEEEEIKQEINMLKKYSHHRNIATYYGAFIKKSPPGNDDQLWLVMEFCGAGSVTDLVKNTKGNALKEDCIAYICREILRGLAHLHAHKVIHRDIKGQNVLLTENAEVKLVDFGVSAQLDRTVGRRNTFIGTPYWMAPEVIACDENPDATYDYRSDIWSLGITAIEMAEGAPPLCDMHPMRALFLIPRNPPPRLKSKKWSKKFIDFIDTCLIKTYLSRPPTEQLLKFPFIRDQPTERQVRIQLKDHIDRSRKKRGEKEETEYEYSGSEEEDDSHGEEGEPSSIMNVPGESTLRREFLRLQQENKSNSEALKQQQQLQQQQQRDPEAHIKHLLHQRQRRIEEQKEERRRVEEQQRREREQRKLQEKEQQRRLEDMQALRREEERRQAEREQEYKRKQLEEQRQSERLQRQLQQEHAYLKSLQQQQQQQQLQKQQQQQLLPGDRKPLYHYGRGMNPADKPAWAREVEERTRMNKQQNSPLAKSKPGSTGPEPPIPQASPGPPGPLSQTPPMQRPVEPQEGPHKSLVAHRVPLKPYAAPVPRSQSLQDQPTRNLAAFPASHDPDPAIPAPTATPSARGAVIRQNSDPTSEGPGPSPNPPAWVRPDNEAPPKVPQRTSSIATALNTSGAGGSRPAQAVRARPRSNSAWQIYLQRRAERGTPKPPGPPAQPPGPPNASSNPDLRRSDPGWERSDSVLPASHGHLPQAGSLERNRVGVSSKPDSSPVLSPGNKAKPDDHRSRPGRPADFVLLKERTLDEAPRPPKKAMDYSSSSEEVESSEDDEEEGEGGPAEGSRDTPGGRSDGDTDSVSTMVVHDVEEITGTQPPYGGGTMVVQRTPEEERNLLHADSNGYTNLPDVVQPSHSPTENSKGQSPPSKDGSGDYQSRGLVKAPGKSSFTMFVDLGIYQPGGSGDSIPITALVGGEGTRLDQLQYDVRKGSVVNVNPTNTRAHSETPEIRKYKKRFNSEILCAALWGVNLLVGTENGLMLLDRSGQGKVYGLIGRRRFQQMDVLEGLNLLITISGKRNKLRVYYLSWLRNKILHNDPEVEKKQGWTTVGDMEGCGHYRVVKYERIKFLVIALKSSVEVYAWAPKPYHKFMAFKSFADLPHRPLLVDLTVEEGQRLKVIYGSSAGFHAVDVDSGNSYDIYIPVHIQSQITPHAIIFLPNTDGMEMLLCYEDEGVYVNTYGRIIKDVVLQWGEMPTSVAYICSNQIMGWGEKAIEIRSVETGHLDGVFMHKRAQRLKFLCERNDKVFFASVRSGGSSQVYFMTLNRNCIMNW
UniProt Q01973, residues 30-937: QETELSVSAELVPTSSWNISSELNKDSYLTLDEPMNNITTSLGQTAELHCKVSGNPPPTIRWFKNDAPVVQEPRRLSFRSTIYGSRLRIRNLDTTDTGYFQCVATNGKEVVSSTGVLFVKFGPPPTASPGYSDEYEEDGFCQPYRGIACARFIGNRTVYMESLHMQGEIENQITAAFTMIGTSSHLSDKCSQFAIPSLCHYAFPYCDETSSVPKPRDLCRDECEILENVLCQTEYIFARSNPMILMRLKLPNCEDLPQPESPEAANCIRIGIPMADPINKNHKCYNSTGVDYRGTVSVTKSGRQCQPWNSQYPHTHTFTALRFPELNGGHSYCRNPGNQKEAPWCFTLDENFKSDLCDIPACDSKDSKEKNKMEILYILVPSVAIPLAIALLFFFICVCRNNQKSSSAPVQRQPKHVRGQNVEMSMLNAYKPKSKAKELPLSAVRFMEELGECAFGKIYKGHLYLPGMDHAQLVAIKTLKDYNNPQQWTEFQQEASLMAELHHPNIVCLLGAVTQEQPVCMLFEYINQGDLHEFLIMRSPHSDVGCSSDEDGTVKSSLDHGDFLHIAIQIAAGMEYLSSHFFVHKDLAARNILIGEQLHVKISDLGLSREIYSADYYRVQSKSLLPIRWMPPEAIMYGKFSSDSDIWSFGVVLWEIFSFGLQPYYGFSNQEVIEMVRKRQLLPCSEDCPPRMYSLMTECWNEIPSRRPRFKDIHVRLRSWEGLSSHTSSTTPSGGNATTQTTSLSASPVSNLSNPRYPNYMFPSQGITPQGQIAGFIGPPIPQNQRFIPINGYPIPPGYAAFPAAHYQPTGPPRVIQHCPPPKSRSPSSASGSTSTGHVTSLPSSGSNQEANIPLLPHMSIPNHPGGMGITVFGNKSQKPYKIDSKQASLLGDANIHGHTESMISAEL
UniProt Q01974, residues 34-943: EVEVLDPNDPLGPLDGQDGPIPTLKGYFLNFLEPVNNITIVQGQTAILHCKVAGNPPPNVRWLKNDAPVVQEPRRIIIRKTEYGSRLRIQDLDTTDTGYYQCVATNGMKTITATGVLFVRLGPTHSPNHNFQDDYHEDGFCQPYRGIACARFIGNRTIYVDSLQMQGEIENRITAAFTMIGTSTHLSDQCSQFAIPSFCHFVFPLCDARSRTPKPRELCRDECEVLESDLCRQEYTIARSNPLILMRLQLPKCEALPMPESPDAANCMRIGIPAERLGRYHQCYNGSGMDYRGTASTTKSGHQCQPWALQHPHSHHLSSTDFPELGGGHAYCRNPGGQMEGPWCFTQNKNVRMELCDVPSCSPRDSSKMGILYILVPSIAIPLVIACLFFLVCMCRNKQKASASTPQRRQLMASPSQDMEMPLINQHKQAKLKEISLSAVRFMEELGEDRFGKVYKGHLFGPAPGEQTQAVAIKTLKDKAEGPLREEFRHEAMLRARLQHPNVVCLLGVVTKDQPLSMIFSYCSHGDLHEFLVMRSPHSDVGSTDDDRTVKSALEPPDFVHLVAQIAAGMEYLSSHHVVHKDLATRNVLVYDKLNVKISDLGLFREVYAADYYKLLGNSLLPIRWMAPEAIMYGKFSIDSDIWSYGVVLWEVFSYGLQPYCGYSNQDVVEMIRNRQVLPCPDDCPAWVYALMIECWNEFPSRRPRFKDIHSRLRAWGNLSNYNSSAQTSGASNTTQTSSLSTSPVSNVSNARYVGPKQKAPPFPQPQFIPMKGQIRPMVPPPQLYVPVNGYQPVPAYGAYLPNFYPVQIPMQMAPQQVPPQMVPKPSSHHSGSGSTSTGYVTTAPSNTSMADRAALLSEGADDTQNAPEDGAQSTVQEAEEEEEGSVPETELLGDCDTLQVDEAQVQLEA

Assay in all cases: proximity labelling; miniTurboID-V5-PRICKLE1-3 baits in stable HEK T-REx 293 TetON cells; doxycycline 1 μg/mL overnight, biotin 50 μM 6 h; streptavidin beads, DIA LC-MS/MS; control miniTurboID-V5 alone; five biological replicates
Test [1] concerns the target T1, miniTurboID-V5-PRICKLE3 (human) (UniProt O43900).
T1 sequence: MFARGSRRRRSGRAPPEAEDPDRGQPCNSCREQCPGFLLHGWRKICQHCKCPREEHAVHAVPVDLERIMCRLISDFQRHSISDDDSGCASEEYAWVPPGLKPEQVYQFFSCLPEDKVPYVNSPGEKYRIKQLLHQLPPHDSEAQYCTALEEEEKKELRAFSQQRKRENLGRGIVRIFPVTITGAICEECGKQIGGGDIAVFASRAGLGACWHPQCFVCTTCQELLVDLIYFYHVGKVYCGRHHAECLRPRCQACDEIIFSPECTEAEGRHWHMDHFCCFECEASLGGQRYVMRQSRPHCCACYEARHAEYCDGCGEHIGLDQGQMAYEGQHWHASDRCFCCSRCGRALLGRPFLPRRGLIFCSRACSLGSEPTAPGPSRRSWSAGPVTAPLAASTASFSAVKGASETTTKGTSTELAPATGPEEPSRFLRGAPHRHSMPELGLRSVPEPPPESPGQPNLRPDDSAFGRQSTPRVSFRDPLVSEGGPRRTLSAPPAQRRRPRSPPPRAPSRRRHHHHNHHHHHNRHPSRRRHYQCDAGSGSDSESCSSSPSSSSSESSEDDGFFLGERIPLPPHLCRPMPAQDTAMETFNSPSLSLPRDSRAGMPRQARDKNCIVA

For test [2], the target named is T2, miniTurboID-V5-PRICKLE1 (human) (UniProt Q96MT3).
T2 sequence: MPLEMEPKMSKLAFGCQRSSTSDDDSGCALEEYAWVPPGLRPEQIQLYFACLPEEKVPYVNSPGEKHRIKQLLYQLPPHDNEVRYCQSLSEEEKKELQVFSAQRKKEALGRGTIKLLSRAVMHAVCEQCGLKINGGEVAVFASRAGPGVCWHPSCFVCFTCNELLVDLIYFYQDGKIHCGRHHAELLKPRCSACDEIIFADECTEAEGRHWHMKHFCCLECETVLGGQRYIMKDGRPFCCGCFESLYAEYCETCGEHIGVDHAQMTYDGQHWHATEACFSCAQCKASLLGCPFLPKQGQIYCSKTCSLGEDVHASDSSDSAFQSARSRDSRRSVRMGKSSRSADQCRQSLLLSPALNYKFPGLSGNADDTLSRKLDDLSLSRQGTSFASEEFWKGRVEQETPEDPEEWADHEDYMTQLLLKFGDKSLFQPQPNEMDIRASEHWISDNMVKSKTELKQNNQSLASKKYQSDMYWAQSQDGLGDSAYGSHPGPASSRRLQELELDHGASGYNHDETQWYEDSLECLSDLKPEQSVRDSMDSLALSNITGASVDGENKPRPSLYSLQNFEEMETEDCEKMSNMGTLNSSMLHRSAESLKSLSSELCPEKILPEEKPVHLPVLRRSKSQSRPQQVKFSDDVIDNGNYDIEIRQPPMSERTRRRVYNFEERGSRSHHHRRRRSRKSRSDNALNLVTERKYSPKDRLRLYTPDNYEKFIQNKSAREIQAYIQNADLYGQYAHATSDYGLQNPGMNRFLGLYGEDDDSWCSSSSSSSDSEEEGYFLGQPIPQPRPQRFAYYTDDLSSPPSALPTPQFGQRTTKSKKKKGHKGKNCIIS

In test [3] the target is T3, miniTurboID-V5-PRICKLE2 (human) (UniProt Q7Z3G6).
T3 sequence: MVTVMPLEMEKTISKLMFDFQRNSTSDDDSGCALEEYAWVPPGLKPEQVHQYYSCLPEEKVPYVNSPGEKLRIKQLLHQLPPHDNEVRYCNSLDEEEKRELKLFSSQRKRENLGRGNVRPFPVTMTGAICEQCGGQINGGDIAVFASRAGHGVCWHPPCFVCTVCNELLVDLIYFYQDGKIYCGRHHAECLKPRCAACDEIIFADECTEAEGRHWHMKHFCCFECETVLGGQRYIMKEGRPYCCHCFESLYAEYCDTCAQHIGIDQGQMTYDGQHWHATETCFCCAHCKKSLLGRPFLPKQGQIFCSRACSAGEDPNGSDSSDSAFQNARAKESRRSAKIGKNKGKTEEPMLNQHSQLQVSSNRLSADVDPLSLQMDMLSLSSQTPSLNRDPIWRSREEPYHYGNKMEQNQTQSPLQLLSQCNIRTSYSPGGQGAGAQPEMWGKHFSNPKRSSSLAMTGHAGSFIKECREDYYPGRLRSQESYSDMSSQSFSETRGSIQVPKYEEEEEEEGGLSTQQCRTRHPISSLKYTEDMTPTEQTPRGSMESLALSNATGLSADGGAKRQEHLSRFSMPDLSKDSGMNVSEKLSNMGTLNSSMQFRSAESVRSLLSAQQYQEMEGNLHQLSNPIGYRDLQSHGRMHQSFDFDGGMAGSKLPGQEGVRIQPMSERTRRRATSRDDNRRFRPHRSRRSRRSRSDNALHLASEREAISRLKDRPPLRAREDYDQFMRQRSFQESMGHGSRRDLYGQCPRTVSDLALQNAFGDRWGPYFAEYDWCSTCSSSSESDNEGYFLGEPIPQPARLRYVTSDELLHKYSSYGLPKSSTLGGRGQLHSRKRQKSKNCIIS

Test [4] has as its target T1, miniTurboID-V5-PRICKLE3 (human). This is another data set of the same source.

Turning to “CELSR1 (endogenous) (from UniProt Q9NYQ6 21-3014) (receptor)”, the binding result in test [1] is “binds”.

As to “CELSR2 (endogenous) (from UniProt Q9HCU4 32-2923) (receptor)”, the binding entry in test [1] is given as “binds”.

In the case of “CEP290 (endogenous) (from UniProt O15078 1-2479)”, the binding entry in test [2] was “binds”. On to “Casein kinase 1ε (endogenous) (from UniProt P49674 1-416) (enzyme)”, for which the binding result in test [2], in test [3] and in test [1] was “binds” in each case. As to “Casein kinase CK2 (endogenous) (human (endogenous in HEK T-REx 293)) (enzyme)”, the binding entry in test [3] and in test [1] was “binds” each time. With “Misshapen-like kinase 1 (endogenous) (from UniProt Q8N4C8 1-1332) (enzyme)”, the binding entry in test [3] and in test [1] was “binds” in each case. Take “ROR1 (endogenous) (from UniProt Q01973 30-937) (receptor)”: the binding result in test [1] is “binds”. Consider “ROR2 (endogenous) (from UniProt Q01974 34-943) (receptor)”, for which the binding result in test [1] is given as “binds”.

B1: EPB41L4A (endogenous) (protein, UniProt Q9HCS5 1-686)
chain: MGCFCAVPEEFYCEVLLLDESKLTLTTQQQGIKKSTKGSVVLDHVFHHVNLVEIDYFGLRYCDRSHQTYWLDPAKTLAEHKELINTGPPYTLYFGIKFYAEDPCKLKEEITRYQFFLQVKQDVLQGRLPCPVNTAAQLGAYAIQSELGDYDPYKHTAGYVSEYRFVPDQKEELEEAIERIHKTLMGQIPSEAELNYLRTAKSLEMYGVDLHPVYGENKSEYFLGLTPVGVVVYKNKKQVGKYFWPRITKVHFKETQFELRVLGKDCNETSFFFEARSKTACKHLWKCSVEHHTFFRMPENESNSLSRKLSKFGSIRYKHRYSGRTALQMSRDLSIQLPRPDQNVTRSRSKTYPKRIAQTQPAESNSISRITANMENGENEGTIKIIAPSPVKSFKKAKNENSPDTQRSKSHAPWEENGPQSGLYNSPSDRTKSPKFPYTRRRNPSCGSDNDSVQPVRRRKAHNSGEDSDLKQRRRSRSRCNTSSGSESENSNREYRKKRNRIRQENDMVDSAPQWEAVLRRQKEKNQADPNNRRSRHRSRSRSPDIQAKEELWKHIQKELVDPSGLSEEQLKEIPYTKIETQGDPIRIRHSHSPRSYRQYRRSQCSDGERSVLSEVNSKTDLVPPLPVTRSSDAQGSGDATVHQRRNGSKDSLMEEKPQTSTNNLAGKHTAKTIKTIQASRLKTET
On to B1, for which the binding entry in test [4] is “binds”.

B2: DVL1 (endogenous) (protein, UniProt O14640 1-695)
chain: MAETKIIYHMDEEETPYLVKLPVAPERVTLADFKNVLSNRPVHAYKFFFKSMDQDFGVVKEEIFDDNAKLPCFNGRVVSWLVLAEGAHSDAGSQGTDSHTDLPPPLERTGGIGDSRPPSFHPNVASSRDGMDNETGTESMVSHRRERARRRNREEAARTNGHPRGDRRRDVGLPPDSASTALSSELESSSFVDSDEDGSTSRLSSSTEQSTSSRLIRKHKRRRRKQRLRQADRASSFSSITDSTMSLNIVTVTLNMERHHFLGISIVGQSNDRGDGGIYIGSIMKGGAVAADGRIEPGDMLLQVNDVNFENMSNDDAVRVLREIVSQTGPISLTVAKCWDPTPRSYFTVPRADPVRPIDPAAWLSHTAALTGALPRYGTSPCSSAVTRTSSSSLTSSVPGAPQLEEAPLTVKSDMSAVVRVMQLPDSGLEIRDRMWLKITIANAVIGADVVDWLYTHVEGFKERREARKYASSLLKHGFLRHTVNKITFSEQCYYVFGDLCSNLATLNLNSGSSGTSDQDTLAPLPHPAAPWPLGQGYPYQYPGPPPCFPPAYQDPGFSYGSGSTGSQQSEGSKSSGSTRSSRRAPGREKERRAAGAGGSGSESDHTAPSGVGSSWRERPAGQLSRGSSPRSQASATAPGLPPPHPTTKAYTVVGGPPGGPPVRELAAVPPELTGSRQSFQKAMGNPCEFFVDIM
Turning to B2, the binding entry in test [4] is given as “binds”.

B3: SRCIN1 (endogenous) (protein, UniProt Q9C0H9 1-1183)
chain: MGNAPSQDPERSSPPMLSADDAEYPREYRTLGGGGGGGSGGRRFSNVGLVHTSERRHTVIAAQSLEALSGLQKADADRKRDAFMDHLKSKYPQHALALRGQQDRMREQPNYWSFKTRSSRHTQGAQPGLADQAAKLSYASAESLETMSEAELPLGFSRMNRFRQSLPLSRSASQTKLRSPGVLFLQFGEETRRVHITHEVSSLDTLHALIAHMFPQKLTMGMLKSPNTAILIKDEARNVFYELEDVRDIQDRSIIKIYRKEPLYAAFPGSHLTNGDLRREMVYASRESSPTRRLNNLSPAPHLASGSPPPGLPSGLPSGLQSGSPSRSRLSYAGGRPPSYAGSPVHHAAERLGGAPAAQGVSPSPSAILERRDVKPDEDLASKAGGMVLVKGEGLYADPYGLLHEGRLSLAAAAGDPFAYPGAGGLYKRGSVRSLSTYSAAALQSDLEDSLYKAAGGGGPLYGDGYGFRLPPSSPQKLADVAAPPGGPPPPHSPYSGPPSRGSPVRQSFRKDSGSSSVFAESPGGKTRSAGSASTAGAPPSELFPGPGERSLVGFGPPVPAKDTETRERMEAMEKQIASLTGLVQSALLRGSEPETPSEKIEGSNGAATPSAPCGSGGRSSGATPVSGPPPPSASSTPAGQPTAVSRLQMQLHLRGLQNSASDLRGQLQQLRKLQLQNQESVRALLKRTEAELSMRVSEAARRQEDPLQRQRTLVEEERLRYLNDEELITQQLNDLEKSVEKIQRDVSHNHRLVPGPELEEKALVLKQLGETLTELKAHFPGLQSKMRVVLRVEVEAVKFLKEEPQRLDGLLKRCRGVTDTLAQIRRQVDEGVWPPPNNLLSQSPKKVTAETDFNKSVDFEMPPPSPPLNLHELSGPAEGASLTPKGGNPTKGLDTPGKRSVDKAVSVEAAERDWEEKRAALTQYSAKDINRLLEETQAELLKAIPDLDCASKAHPGPAPTPDHKPPKAPHGQKAAPRTEPSGRRGSDELTVPRYRTEKPSKSPPPPPPRRSFPSSHGLTTTRTGEVVVTSKKDSAFIKKAESEELEVQKPQVKLRRAVSEVARPASTPPIMASAIKDEDDEDRIIAELESGGGSVPPMKVVTPGASRLKAAQGQAGSPDKSKHGKQRAEYMRIQAQQQATKPSKEMSGSNETSSPVSEKPSASRTSIPVLTSFGARNSSISF
Regarding B3, the binding result in test [4] was “binds”.

The values are drawn from publication PMC12859043.
